Data as given in PubChem BioAssay AID504786 (Drosophila RNAi Screening Center, 2011).
Purpose: 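Knock-downs reducing HIF reporter induction by the iron chelator DFO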 (primary screen). Cell system: Drosophila S2 cells with a stable HIF luciferase reporter. Reagents: long dsRNA against Drosophila genes, about 0.2 µg dsRNA per well of a 384-well plate. Duration: three days of knock-down, then 20 h of DFO before reading. Conditions: desferrioxamine (DFO) at 100 µM, an iron chelator that mimics hypoxia, for 20 h. Read-out: 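HIF reporter luminescence in cells given 100 µM DFO for 20 h, using the mouse ldh-a hypoxia-response element, scored as per-plate z-scores; higher means greater loss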. Direction: z-score: higher = stronger loss of HIF reporter signal.
In all, the deposit lists about 21,000 reagents; this is an unselected part of those that have a named target and a result. 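Primary screen; positive scores mean lost reporter signal, so the sign may be inverted from the usual convention.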

z-score, replicate 1	z-score, replicate 2	z-score, replicate 3	z-score, replicate 4	gene	PubChem SID
-0.3	0			CG8840	SID104180505
-0.2	-0.3			CG11112	SID104185830
-0.4	-0.6			CG11191	SID104185848
-0.1	0.2			CG40282 (retired record)	SID104187606
0	0.6			CG14829	SID104189991
-0.2	0			caps	SID104191125
-0.2	-0.4			del	SID104182962
-0.3	-0.4			LS2	SID104184132
-0.4	-0.7			sov	SID104197722
-0.4	-0.7			CG43707	SID104180072
-0.2	-0.4			CG14096	SID104189891
-0.3	-0.5			Asph	SID104186575
-0.2	0.1			Asph	SID104186963
-0.1	0.2			SAK	SID104191671
-0.3	-0.2			loj	SID104189583
-0.3	-0.1			CG4891	SID104181728
-0.3	-0.7			CG34342	SID104189548
7	4.6			RpL17	SID104198085
-0.1	-0.3			Pka-C3	SID104189194
-0.1	-0.7			Pka-C3	SID104191046
-0.2	0.7			CG12609	SID104199265
-0.3	0.1			Gr33a	SID104182381
-0.3	-0.6			CG11068	SID104199161
-0.2	1.8			Invadolysin	SID104195319
0.2	1.4			Mtr3	SID104190745
-0.3	-0.1			CG32040	SID104188773
-0.1	0.1			CG42346	SID104200414
0.4	0.6			CG42346	SID104200436
2.1	0.5			sens	SID104189055
-0.3	-0.2			CG4572	SID104195395
-0.1	1.2			CG6765	SID104190498
-0.3	-0.1			CG14855	SID104194771

Next part, starting with the last 7 of the part before.
z-score, replicate 1	z-score, replicate 2	z-score, replicate 3	z-score, replicate 4	gene	PubChem SID
-0.3	-0.1			CG32040	SID104188773
-0.1	0.1			CG42346	SID104200414
0.4	0.6			CG42346	SID104200436
2.1	0.5			sens	SID104189055
-0.3	-0.2			CG4572	SID104195395
-0.1	1.2			CG6765	SID104190498
-0.3	-0.1			CG14855	SID104194771
-0.1	-0.2			CG33679	SID104181228
-0.1	-0.2			Tom	SID104191098
-1.2	-0.2			CG14302	SID104194573
6.5	4.2			RpL7A	SID104198501
-0.3	-0.2			Mkrn1	SID104191662
0	1.2			bys	SID104198540
-0.1	0			CG30432	SID104184625
5.1	6.2			RpLP2	SID104187331
-0.8	0.1	0.3	0	CG30403	SID104183681
-0.1	-0.7			Sbp2	SID104190558
-0.4	0.3			pasi2	SID104196172
-0.3	-0.2			CG10764	SID104185792
-0.2	-0.4			Sdc	SID104184446
-0.4	-0.7			Mgat2	SID104196139
-0.3	-0.1			Clic	SID104199156
-0.2	0.2			CG45002	SID104199936
-0.3	-0.5			Cyp9b2	SID104187182
-0.3	-0.5			CG7768	SID104190706
-0.3	-0.4			Bro	SID104187941
-0.1	-0.3			CG12511	SID104181963
-0.3	-0.3			RecQ5	SID104191058
-0.2	-0.1			Mapmodulin	SID104186748
-0.3	0.1			Sec13	SID104193936
-0.1	0.1			CG7131	SID104195995
